Test results as given in patent US20240181006A1, “POLYPEPTIDES BINDING ADAMTS5, MMP13 AND AGGRECAN” (Merck Patent GmbH, priority 2017, published 2024).

Molecular target: guinea pig ADAMTS5 (guinea pig)
Assay: SPR off-rate analysis

B1: anti-ADAMTS5 ISVD 02F03 (VHH)
VHH: EVQLVESGGGVVQPGGSLRLSCAASGRTVSSYAMGWFRQAPGKEREFVAGISRSAERTYYVDSLKGRFTISRDNSKNTVYLQMNSLRPEDTALYYCAADLDPNRIFSREEYAYWGQGTLVTVSS
binding: binds

Results are given in words; binding and its absence hold for the method and conditions named. Binding calls can cover weak binding; strength is not graded here.
